# In the supplement of paper PMC8728848:
# Some of the results follow.
# Legend:
# Test in all cases: glycan array binding signal (z-score within array); higher = stronger binding
# Details in all cases: glycan notation: IUPAC condensed, linker removed
# [1] = molecular target: Neu5Ac(a2-3)Gal(b1-4)GlcNAc(b1-3)[Neu5Ac(a2-3)Gal(b1-4)GlcNAc(b1-6)]GalNAc
# Summary of the method: (§1)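 The Consortium for Functional Glycomics database supplied 3228 glycan arrays, of which those lacking an available protein sequence were dropped. The binding signal, a within-array Z-score, was averaged across arrays of the same protein sequence and across linkers. Negative scores can be read as non-binding.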
# [2] = molecular target: Neu5Ac(a2-3)Gal(b1-4)GlcNAc(b1-6)GalNAc
# Summary of the method: as §1
# [3] = molecular target: Neu5Ac(a2-3)Gal(b1-4)GlcNAc(b1-6)[Gal(b1-3)]GalNAc
# Summary of the method: as §1
# [4] = molecular target: Neu5Ac(a2-3)Gal(b1-4)GlcNAc(b1-6)[Neu5Ac(a2-3)Gal(b1-3)]GalNAc
# Summary of the method: as §1
# [5] = molecular target: Neu5Ac(a2-3)Gal(b1-4)GlcNAc6S
# Summary of the method: as §1
# [6] = molecular target: Neu5Ac(a2-3)Gal(b1-4)[Fuc(a1-3)]GlcNAc
# Summary of the method: as §1
# [7] = molecular target: Neu5Ac(a2-3)Gal(b1-4)[Fuc(a1-3)]GlcNAc(b1-2)Man
# Summary of the method: as §1
# [8] = molecular target: Neu5Ac(a2-3)Gal(b1-4)[Fuc(a1-3)]GlcNAc(b1-3)Gal
# Summary of the method: as §1
# [9] = molecular target: Neu5Ac(a2-3)Gal(b1-4)[Fuc(a1-3)]GlcNAc(b1-3)Gal(b1-4)GlcNAc
# Summary of the method: as §1
# [10] = molecular target: Neu5Ac(a2-3)Gal(b1-4)[Fuc(a1-3)]GlcNAc(b1-3)Gal(b1-4)[Fuc(a1-3)]GlcNAc(b1-3)Gal(b1-4)[Fuc(a1-3)]GlcNAc
# Summary of the method: as §1
# [11] = molecular target: Neu5Ac(a2-3)Gal(b1-4)[Fuc(a1-3)]GlcNAc(b1-3)GalNAc
# Summary of the method: as §1
# [12] = molecular target: Neu5Ac(a2-3)Gal(b1-4)[Fuc(a1-3)]GlcNAc(b1-6)[Gal(b1-3)]GalNAc
# Summary of the method: as §1
# [13] = molecular target: Neu5Ac(a2-3)Gal(b1-4)[Fuc(a1-3)]GlcNAc(b1-6)[Neu5Ac(a2-3)Gal(b1-3)]GalNAc
# Summary of the method: as §1
# [14] = molecular target: Neu5Ac(a2-3)Gal(b1-4)[Fuc(a1-3)]GlcNAc6S
# Summary of the method: as §1
# [15] = molecular target: Neu5Ac(a2-3)Gal6S(b1-4)GlcNAc
# Summary of the method: as §1
# [16] = molecular target: Neu5Ac(a2-3)Gal6S(b1-4)[Fuc(a1-3)]GlcNAc
# Summary of the method: as §1
# Neu5Ac(a2-3)GalNAc = molecular target: Neu5Ac(a2-3)GalNAc
# Summary of the method: as §1
# [17] = molecular target: Neu5Ac(a2-3)GalNAc(b1-4)GlcNAc
# Summary of the method: as §1
# [18] = molecular target: Neu5Ac(a2-3)[GalNAc(b1-4)]Gal(b1-4)Glc
# Summary of the method: as §1
# [19] = molecular target: Neu5Ac(a2-3)[GalNAc(b1-4)]Gal(b1-4)GlcNAc
# Summary of the method: as §1
# [20] = molecular target: Neu5Ac(a2-3)[GalNAc(b1-4)]Gal(b1-4)GlcNAc(b1-3)GalNAc
# Summary of the method: as §1
# [21] = molecular target: Neu5Ac(a2-3)[Neu5Ac(a2-6)]GalNAc
# Summary of the method: as §1
# Neu5Ac(a2-6)Gal = molecular target: Neu5Ac(a2-6)Gal
# Summary of the method: as §1
# [22] = molecular target: Neu5Ac(a2-6)Gal(b1-3)GlcNAc(b1-3)[Gal(b1-4)GlcNAc(b1-6)]Gal(b1-4)Glc
# Summary of the method: as §1
# Neu5Ac(a2-6)Gal(b1-4)Glc = molecular target: Neu5Ac(a2-6)Gal(b1-4)Glc
# Summary of the method: as §1
# [23] = molecular target: Neu5Ac(a2-6)Gal(b1-4)GlcNAc
# Summary of the method: as §1
# [24] = molecular target: Neu5Ac(a2-6)Gal(b1-4)GlcNAc(b1-2)Man
# Summary of the method: as §1
# [25] = molecular target: Neu5Ac(a2-6)Gal(b1-4)GlcNAc(b1-2)Man(a1-3)Man(b1-4)GlcNAc(b1-4)GlcNAc
# Summary of the method: as §1
# [26] = molecular target: Neu5Ac(a2-6)Gal(b1-4)GlcNAc(b1-2)Man(a1-3)[Gal(b1-4)GlcNAc(b1-2)Man(a1-6)]Man(b1-4)GlcNAc(b1-4)GlcNAc
# Summary of the method: as §1
# [27] = molecular target: Neu5Ac(a2-6)Gal(b1-4)GlcNAc(b1-2)Man(a1-3)[GlcNAc(b1-2)Man(a1-6)]Man(b1-4)GlcNAc(b1-4)GlcNAc
# Summary of the method: as §1
# [28] = molecular target: Neu5Ac(a2-6)Gal(b1-4)GlcNAc(b1-2)Man(a1-3)[GlcNAc(b1-4)][Neu5Ac(a2-6)Gal(b1-4)GlcNAc(b1-2)Man(a1-6)]Man(b1-4)GlcNAc(b1-4)GlcNAc
# Summary of the method: as §1
# [29] = molecular target: Neu5Ac(a2-6)Gal(b1-4)GlcNAc(b1-2)Man(a1-3)[Man(a1-6)]Man(b1-4)GlcNAc(b1-4)GlcNAc
# Summary of the method: as §1
# [30] = molecular target: Neu5Ac(a2-6)Gal(b1-4)GlcNAc(b1-2)Man(a1-3)[Neu5Ac(a2-3)Gal(b1-4)GlcNAc(b1-2)Man(a1-6)]Man(b1-4)GlcNAc(b1-4)GlcNAc
# Summary of the method: as §1
# [31] = molecular target: Neu5Ac(a2-6)Gal(b1-4)GlcNAc(b1-2)Man(a1-3)[Neu5Ac(a2-6)Gal(b1-4)GlcNAc(b1-2)Man(a1-6)]Man(b1-4)GlcNAc(b1-4)GlcNAc
# Summary of the method: as §1
# [32] = molecular target: Neu5Ac(a2-6)Gal(b1-4)GlcNAc(b1-2)Man(a1-3)[Neu5Ac(a2-6)Gal(b1-4)GlcNAc(b1-2)Man(a1-6)]Man(b1-4)GlcNAc(b1-4)[Fuc(a1-6)]GlcNAc
# Summary of the method: as §1
# [33] = molecular target: Neu5Ac(a2-6)Gal(b1-4)GlcNAc(b1-2)Man(a1-6)Man(b1-4)GlcNAc(b1-4)GlcNAc
# Summary of the method: as §1
# [34] = molecular target: Neu5Ac(a2-6)Gal(b1-4)GlcNAc(b1-2)Man(a1-6)[Gal(b1-4)GlcNAc(b1-2)Man(a1-3)]Man(b1-4)GlcNAc(b1-4)GlcNAc
# Summary of the method: as §1
# [35] = molecular target: Neu5Ac(a2-6)Gal(b1-4)GlcNAc(b1-2)Man(a1-6)[GlcNAc(b1-2)Man(a1-3)]Man(b1-4)GlcNAc(b1-4)GlcNAc
# Summary of the method: as §1
# [36] = molecular target: Neu5Ac(a2-6)Gal(b1-4)GlcNAc(b1-2)Man(a1-6)[Man(a1-3)]Man(b1-4)GlcNAc(b1-4)GlcNAc
# Summary of the method: as §1
# [37] = molecular target: Neu5Ac(a2-6)Gal(b1-4)GlcNAc(b1-2)[Neu5Ac(a2-6)Gal(b1-4)GlcNAc(b1-4)]Man(a1-3)[GlcNAc(b1-4)][Neu5Ac(a2-6)Gal(b1-4)GlcNAc(b1-2)[Neu5Ac(a2-6)Gal(b1-4)GlcNAc(b1-6)]Man(a1-6)]Man(b1-4)GlcNAc(b1-4)GlcNAc
# Summary of the method: as §1
# [38] = molecular target: Neu5Ac(a2-6)Gal(b1-4)GlcNAc(b1-2)[Neu5Ac(a2-6)Gal(b1-4)GlcNAc(b1-4)]Man(a1-3)[GlcNAc(b1-4)][Neu5Ac(a2-6)Gal(b1-4)GlcNAc(b1-4)Man(a1-6)]Man(b1-4)GlcNAc(b1-4)GlcNAc
# Summary of the method: as §1
# [39] = molecular target: Neu5Ac(a2-6)Gal(b1-4)GlcNAc(b1-2)[Neu5Ac(a2-6)Gal(b1-4)GlcNAc(b1-6)]Man(a1-6)[Neu5Ac(a2-6)Gal(b1-4)GlcNAc(b1-2)Man(a1-3)][GlcNAc(b1-4)]Man(b1-4)GlcNAc(b1-4)GlcNAc
# Summary of the method: as §1
# [40] = molecular target: Neu5Ac(a2-6)Gal(b1-4)GlcNAc(b1-3)Gal(b1-3)GlcNAc
# Summary of the method: as §1
# [41] = molecular target: Neu5Ac(a2-6)Gal(b1-4)GlcNAc(b1-3)Gal(b1-4)GlcNAc
# Summary of the method: as §1
# [42] = molecular target: Neu5Ac(a2-6)Gal(b1-4)GlcNAc(b1-3)Gal(b1-4)GlcNAc(b1-2)Man(a1-3)[Neu5Ac(a2-6)Gal(b1-4)GlcNAc(b1-3)Gal(b1-4)GlcNAc(b1-2)Man(a1-6)]GalNAc
# Summary of the method: as §1
# [43] = molecular target: Neu5Ac(a2-6)Gal(b1-4)GlcNAc(b1-3)Gal(b1-4)GlcNAc(b1-3)Gal(b1-4)GlcNAc
# Summary of the method: as §1
binder,measurement,setting,value
"FGF1 (Homo sapiens), P05230 (protein) MAEGEITTFTALTEKFNLPPGNYKKPKLLYSNGGHFLRILPDGTVDGTRDRSDQHIQLQLSAESVGEVYIKSTETGQYLAMTDGLLYGSQTPNEECLFLERLEENHYNTYISKHAEKNWFVGLKKNGSCKRGPRTHYGQAILFLPLPASSED",glycan array binding signal (z-score),[1],-0.483
same,glycan array binding signal (z-score),[2],-0.141
same,glycan array binding signal (z-score),[3],-0.187
same,glycan array binding signal (z-score),[4],-0.954
same,glycan array binding signal (z-score),[5],-0.463
same,glycan array binding signal (z-score),[6],-0.632
same,glycan array binding signal (z-score),[7],-0.767
same,glycan array binding signal (z-score),[8],-0.744
same,glycan array binding signal (z-score),[9],0.987
same,glycan array binding signal (z-score),[10],-0.968
same,glycan array binding signal (z-score),[11],1.3
same,glycan array binding signal (z-score),[12],0.146
same,glycan array binding signal (z-score),[13],0.465
same,glycan array binding signal (z-score),[14],0.112
same,glycan array binding signal (z-score),[15],-0.89
same,glycan array binding signal (z-score),[16],-0.669
same,glycan array binding signal (z-score),Neu5Ac(a2-3)GalNAc,0.463
same,glycan array binding signal (z-score),[17],-0.361
same,glycan array binding signal (z-score),[18],-0.804
same,glycan array binding signal (z-score),[19],-0.855
same,glycan array binding signal (z-score),[20],-0.27
same,glycan array binding signal (z-score),[21],-0.47
same,glycan array binding signal (z-score),Neu5Ac(a2-6)Gal,1.8
same,glycan array binding signal (z-score),[22],-0.745
same,glycan array binding signal (z-score),Neu5Ac(a2-6)Gal(b1-4)Glc,0.536
same,glycan array binding signal (z-score),[23],-0.718
same,glycan array binding signal (z-score),[24],0.963
same,glycan array binding signal (z-score),[25],-0.04
same,glycan array binding signal (z-score),[26],-0.812
same,glycan array binding signal (z-score),[27],0.337
same,glycan array binding signal (z-score),[28],-0.362
same,glycan array binding signal (z-score),[29],-0.035
same,glycan array binding signal (z-score),[30],-0.737
same,glycan array binding signal (z-score),[31],0.039
same,glycan array binding signal (z-score),[32],-0.706
same,glycan array binding signal (z-score),[33],-0.414
same,glycan array binding signal (z-score),[34],-0.298
same,glycan array binding signal (z-score),[35],-0.691
same,glycan array binding signal (z-score),[36],0.651
same,glycan array binding signal (z-score),[37],-0.425
same,glycan array binding signal (z-score),[38],-0.019
same,glycan array binding signal (z-score),[39],-0.541
same,glycan array binding signal (z-score),[40],-0.667
same,glycan array binding signal (z-score),[41],-0.866
same,glycan array binding signal (z-score),[42],-0.026
same,glycan array binding signal (z-score),[43],-0.546

# Already shown: an excerpt of the list.
binder,measurement,setting,value
"FGF1 (Homo sapiens), P05230 (protein) MAEGEITTFTALTEKFNLPPGNYKKPKLLYSNGGHFLRILPDGTVDGTRDRSDQHIQLQLSAESVGEVYIKSTETGQYLAMTDGLLYGSQTPNEECLFLERLEENHYNTYISKHAEKNWFVGLKKNGSCKRGPRTHYGQAILFLPLPASSED",glycan array binding signal (z-score),[38],-0.019
same,glycan array binding signal (z-score),[39],-0.541
same,glycan array binding signal (z-score),[40],-0.667
